# Data: article PMC12222028
# Protein sequences, listed by entry. Tags and fused reporters are not part of them. Residues count along the entry.
# UniProt Q9P0T7, residues 21-183: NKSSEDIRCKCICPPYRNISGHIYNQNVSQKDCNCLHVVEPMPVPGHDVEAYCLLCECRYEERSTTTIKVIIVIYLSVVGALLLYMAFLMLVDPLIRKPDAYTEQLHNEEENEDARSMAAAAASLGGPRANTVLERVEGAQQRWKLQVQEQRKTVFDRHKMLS
# UniProt P51793: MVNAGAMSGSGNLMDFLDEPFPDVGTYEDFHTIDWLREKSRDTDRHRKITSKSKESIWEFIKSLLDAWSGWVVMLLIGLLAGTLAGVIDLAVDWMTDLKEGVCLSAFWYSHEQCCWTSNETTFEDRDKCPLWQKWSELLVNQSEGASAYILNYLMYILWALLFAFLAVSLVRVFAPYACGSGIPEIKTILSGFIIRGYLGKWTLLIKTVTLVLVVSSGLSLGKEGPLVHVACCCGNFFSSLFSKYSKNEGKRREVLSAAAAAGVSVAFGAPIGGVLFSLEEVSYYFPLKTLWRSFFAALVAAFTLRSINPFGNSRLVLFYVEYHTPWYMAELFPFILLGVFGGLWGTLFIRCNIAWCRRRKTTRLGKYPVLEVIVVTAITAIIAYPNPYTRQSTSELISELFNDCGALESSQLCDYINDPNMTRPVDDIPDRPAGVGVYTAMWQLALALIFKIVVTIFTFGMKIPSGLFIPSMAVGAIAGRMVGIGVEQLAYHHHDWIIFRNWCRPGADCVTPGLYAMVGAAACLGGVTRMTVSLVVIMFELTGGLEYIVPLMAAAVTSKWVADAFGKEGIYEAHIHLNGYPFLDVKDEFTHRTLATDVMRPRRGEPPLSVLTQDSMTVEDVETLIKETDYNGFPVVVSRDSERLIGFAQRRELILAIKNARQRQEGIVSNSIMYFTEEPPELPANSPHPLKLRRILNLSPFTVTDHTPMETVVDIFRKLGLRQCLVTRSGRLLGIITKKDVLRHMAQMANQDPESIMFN
# Target: TMEM9–HA (human) (UniProt Q9P0T7)
# Test: affinity purification with mass spectrometry; anti-HA IPs from TMEM9-/- iNeurons (day 21) with or without lentiviral expression of TMEM9-HA; 0.5% DDM extract; TMT-MS
substance,measurement,value
CLCN4 (from UniProt P51793 1-760),binding,binds

# Results are given in words; binding and its absence hold for the method and conditions named. In cells and extracts the contact can be indirect. A yes stands for co-enrichment or nearness to the bait. Other partners may have been found.
